Publication PMC13473141
Results are given in words; binding and its absence hold for the method and conditions named. In cells and extracts the contact can be indirect. These calls come from enrichment with a bait or labelling near it, and not all partners need be listed. Sequences can lack the tags named with a protein. Blank lines part the entries; values can stand above or below the molecule they belong to.

The chains behind the UniProt entries cited, without tags or fusion partners.
UniProt Q9NWV8: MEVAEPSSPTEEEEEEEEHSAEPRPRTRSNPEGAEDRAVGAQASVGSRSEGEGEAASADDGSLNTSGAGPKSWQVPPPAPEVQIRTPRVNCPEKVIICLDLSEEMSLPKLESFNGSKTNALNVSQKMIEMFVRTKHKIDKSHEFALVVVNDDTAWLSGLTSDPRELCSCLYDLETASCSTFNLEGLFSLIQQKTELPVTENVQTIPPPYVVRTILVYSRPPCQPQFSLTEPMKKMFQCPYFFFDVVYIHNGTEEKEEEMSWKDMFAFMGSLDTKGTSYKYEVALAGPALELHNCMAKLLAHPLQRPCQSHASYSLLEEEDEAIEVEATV
UniProt P46736: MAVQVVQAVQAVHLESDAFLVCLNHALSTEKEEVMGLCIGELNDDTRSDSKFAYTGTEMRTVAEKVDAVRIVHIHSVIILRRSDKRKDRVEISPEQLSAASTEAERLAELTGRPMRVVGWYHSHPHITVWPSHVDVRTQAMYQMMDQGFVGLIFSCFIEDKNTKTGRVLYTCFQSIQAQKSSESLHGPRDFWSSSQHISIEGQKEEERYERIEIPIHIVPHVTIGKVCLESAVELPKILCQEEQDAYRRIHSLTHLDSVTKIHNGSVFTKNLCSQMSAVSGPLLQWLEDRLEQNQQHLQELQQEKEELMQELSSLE
UniProt Q9NXR7: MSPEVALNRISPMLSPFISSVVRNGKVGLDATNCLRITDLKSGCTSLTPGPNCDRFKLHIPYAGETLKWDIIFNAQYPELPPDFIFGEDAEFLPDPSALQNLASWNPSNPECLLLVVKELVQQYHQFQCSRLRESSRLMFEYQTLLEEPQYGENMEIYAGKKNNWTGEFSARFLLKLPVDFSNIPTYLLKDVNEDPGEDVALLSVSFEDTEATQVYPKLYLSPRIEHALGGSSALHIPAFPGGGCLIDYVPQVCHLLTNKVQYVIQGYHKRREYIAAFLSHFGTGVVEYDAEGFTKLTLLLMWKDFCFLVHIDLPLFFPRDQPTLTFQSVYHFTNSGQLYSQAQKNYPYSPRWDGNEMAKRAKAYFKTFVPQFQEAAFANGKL
UniProt Q02880: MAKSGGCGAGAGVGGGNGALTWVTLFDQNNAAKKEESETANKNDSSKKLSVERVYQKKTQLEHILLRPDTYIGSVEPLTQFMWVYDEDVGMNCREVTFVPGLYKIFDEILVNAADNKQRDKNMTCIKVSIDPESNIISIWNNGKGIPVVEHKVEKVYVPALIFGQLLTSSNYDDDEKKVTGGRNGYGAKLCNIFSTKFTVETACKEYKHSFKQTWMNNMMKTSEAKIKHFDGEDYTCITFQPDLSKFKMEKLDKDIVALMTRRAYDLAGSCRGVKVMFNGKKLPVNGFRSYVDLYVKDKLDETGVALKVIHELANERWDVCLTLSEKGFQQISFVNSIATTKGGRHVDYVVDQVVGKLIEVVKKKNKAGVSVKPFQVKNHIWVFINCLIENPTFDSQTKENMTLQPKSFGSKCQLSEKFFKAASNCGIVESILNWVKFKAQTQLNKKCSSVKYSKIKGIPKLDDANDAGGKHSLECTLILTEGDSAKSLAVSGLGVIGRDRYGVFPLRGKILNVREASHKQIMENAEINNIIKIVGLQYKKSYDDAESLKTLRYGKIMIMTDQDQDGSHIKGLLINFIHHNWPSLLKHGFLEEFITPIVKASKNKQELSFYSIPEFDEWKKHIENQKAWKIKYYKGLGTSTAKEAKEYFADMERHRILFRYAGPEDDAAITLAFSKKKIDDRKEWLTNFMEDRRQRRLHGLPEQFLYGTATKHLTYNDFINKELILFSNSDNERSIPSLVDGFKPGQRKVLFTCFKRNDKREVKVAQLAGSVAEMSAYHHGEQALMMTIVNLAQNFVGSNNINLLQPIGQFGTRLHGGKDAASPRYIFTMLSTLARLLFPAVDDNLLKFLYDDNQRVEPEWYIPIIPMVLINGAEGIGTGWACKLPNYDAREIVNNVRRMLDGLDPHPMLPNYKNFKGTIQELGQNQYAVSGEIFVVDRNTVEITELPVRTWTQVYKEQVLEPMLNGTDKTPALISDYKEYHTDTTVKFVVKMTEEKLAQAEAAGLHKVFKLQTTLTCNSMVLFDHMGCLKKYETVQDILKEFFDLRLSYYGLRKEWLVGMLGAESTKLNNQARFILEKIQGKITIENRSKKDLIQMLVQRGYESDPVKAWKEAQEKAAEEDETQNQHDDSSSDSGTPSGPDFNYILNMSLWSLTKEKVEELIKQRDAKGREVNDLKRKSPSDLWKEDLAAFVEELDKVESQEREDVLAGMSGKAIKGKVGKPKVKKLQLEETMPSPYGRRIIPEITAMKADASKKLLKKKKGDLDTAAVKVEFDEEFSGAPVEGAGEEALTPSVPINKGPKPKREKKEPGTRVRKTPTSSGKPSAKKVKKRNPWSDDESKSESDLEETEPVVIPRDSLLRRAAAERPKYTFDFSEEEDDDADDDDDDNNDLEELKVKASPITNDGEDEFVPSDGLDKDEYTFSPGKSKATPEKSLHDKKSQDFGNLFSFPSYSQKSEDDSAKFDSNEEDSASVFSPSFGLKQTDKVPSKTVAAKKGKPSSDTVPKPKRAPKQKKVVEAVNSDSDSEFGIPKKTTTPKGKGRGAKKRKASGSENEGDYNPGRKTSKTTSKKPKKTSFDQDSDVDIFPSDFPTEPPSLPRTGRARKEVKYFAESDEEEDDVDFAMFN
UniProt Q96RL1: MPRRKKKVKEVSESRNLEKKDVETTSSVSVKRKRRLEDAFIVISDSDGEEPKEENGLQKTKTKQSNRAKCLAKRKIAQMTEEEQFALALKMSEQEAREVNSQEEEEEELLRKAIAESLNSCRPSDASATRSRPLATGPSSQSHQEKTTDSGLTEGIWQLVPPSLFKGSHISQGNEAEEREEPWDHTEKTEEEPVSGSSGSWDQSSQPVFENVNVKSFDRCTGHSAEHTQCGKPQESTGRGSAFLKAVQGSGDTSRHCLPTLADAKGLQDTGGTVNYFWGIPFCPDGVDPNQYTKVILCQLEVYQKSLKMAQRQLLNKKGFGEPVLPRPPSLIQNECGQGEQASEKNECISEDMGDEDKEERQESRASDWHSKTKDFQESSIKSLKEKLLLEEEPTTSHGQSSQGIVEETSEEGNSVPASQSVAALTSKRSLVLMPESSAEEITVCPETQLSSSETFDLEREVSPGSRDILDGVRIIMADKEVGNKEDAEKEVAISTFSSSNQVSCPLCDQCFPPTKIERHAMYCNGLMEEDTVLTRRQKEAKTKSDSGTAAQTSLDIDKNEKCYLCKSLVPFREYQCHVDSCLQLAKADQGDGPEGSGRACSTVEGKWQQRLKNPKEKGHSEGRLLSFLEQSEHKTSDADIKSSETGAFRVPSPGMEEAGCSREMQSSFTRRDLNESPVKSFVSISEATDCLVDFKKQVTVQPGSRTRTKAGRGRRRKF
UniProt Q93009: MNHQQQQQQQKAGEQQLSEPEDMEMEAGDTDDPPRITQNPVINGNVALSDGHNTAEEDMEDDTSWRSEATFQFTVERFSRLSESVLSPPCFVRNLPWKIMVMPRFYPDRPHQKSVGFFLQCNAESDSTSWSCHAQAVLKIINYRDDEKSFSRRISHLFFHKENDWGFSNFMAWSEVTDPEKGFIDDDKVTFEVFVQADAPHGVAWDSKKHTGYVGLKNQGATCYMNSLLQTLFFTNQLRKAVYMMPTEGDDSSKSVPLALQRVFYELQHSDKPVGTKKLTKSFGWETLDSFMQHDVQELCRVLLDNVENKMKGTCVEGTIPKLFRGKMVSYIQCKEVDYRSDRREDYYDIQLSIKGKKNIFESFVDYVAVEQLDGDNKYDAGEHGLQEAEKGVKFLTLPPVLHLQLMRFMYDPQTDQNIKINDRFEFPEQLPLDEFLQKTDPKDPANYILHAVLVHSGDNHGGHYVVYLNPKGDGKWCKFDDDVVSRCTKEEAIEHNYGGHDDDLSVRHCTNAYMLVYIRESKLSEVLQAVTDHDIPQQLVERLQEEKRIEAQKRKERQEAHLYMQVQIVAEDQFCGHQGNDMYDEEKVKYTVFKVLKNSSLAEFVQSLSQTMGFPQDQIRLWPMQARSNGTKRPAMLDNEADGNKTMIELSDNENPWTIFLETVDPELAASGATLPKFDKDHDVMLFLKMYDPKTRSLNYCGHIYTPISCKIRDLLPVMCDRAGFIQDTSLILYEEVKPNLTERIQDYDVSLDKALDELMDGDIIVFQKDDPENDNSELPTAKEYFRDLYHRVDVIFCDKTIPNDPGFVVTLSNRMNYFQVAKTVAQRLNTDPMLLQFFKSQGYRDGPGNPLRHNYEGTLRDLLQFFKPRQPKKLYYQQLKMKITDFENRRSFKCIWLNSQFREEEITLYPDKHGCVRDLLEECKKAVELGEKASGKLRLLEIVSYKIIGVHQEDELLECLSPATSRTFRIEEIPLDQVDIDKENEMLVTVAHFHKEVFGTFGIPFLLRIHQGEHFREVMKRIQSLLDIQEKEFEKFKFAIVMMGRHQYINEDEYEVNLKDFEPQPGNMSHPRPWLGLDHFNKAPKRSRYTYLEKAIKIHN
UniProt P51784: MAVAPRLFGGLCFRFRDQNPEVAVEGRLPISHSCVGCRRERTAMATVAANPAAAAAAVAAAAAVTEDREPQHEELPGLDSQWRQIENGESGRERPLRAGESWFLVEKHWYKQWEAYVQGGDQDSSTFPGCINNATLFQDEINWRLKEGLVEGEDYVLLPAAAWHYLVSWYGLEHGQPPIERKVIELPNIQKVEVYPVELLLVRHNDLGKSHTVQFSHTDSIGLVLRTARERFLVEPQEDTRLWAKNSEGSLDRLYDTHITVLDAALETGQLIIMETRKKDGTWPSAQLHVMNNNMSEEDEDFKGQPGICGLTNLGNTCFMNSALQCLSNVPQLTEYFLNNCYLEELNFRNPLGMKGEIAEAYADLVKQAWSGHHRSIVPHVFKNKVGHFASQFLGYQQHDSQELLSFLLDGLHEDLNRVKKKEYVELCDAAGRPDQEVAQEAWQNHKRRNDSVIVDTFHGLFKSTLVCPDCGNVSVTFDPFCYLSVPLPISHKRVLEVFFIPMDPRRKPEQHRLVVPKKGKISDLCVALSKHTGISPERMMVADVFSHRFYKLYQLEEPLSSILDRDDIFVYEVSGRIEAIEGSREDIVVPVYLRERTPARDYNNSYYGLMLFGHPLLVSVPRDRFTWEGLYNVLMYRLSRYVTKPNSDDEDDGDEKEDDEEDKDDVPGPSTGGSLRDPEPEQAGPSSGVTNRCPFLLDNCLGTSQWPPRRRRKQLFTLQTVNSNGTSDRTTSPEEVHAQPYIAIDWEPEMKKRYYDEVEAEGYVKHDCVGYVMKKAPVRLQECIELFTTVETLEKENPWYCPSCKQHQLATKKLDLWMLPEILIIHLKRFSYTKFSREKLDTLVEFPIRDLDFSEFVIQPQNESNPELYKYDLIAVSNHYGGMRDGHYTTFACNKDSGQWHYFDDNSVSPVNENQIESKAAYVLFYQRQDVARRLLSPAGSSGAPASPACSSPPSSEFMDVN
UniProt Q70CQ3: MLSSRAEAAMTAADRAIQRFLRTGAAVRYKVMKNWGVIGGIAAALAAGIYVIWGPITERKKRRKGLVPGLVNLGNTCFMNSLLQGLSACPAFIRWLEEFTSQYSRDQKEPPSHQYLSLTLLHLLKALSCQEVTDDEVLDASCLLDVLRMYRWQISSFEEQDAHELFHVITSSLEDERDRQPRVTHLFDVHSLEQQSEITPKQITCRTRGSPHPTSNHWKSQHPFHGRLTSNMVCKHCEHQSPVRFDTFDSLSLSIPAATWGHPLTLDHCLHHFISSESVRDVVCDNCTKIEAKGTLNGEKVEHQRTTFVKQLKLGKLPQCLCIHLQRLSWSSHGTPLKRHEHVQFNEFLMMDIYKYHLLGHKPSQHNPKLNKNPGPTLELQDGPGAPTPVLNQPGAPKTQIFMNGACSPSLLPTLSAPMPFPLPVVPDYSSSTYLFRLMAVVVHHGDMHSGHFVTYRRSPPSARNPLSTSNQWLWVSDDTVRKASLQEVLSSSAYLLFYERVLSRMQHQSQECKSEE

Target: T1, FLAG-TOPORS (UniProt Q9NS56)
T1 sequence: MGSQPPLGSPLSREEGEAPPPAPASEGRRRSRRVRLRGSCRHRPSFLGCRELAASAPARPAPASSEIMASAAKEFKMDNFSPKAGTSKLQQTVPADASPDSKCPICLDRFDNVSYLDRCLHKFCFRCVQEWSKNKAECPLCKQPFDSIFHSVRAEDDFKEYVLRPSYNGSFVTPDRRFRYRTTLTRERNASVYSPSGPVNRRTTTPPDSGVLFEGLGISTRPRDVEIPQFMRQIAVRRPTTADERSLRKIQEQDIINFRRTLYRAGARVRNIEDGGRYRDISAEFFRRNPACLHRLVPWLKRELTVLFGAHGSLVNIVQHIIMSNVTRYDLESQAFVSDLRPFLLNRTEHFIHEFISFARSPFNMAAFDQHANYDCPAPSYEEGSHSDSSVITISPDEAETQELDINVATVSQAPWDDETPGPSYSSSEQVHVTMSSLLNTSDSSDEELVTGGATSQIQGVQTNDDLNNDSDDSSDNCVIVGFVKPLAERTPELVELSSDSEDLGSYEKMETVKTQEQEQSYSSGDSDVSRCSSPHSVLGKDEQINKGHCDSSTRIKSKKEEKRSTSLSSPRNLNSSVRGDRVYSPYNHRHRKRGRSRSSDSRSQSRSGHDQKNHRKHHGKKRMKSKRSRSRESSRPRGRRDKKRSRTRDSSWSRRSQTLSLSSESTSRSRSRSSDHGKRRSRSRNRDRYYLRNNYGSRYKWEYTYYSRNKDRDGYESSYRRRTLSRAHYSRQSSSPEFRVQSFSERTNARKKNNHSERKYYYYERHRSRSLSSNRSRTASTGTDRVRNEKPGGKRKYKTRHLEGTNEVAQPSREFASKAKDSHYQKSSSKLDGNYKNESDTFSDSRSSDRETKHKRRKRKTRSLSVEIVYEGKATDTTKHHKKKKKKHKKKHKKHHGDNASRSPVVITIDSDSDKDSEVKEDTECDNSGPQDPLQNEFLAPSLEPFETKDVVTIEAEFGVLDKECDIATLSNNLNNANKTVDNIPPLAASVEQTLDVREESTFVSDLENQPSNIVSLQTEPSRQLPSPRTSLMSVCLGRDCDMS
Experiment: affinity purification with mass spectrometry; FLAG-TOPORS or empty vector expressed in HEK293T in triplicate; FLAG immunoprecipitation, on-bead trypsin digestion, LC-MS/MS, label-free quantitation

Molecule: BABAM1/NBA1/MERIT40 (from UniProt Q9NWV8 1-329)
binding: binds

Molecule: BRCC3/BRCC36 (from UniProt P46736 1-316) (enzyme)
binding: binds

Molecule: BRE/BRCC45 (from UniProt Q9NXR7 1-383)
binding: binds

Molecule: topoisomerase 2B (from UniProt Q02880 1-1626) (enzyme)
binding: binds

Other lines, results leading:

binding: binds
Molecule: RAP80 (from UniProt Q96RL1 1-719)

binding: binds
Molecule: USP7 (endogenous) (from UniProt Q93009 1-1102) (enzyme)

binding: binds
Molecule: USP11 (from UniProt P51784 1-963) (enzyme)

binding: binds
Molecule: USP30 (from UniProt Q70CQ3 1-517) (enzyme)

binding: binds
B1: SENP2 (enzyme, UniProt Q9HC62 1-589)
chain: MYRWLVRILGTIFRFCDRSVPPARALLKRRRSDSTLFSTVDTDEIPAKRPRLDCFIHQVKNSLYNAASLFGFPFQLTTKPMVTSACNGTRNVAPSGEVFSNSSSCELTGSGSWNNMLKLGNKSPNGISDYPKIRVTVTRDQPRRVLPSFGFTLNSEGCNRRPGGRRHSKGNPESSLMWKPQEQAVTEMISEESGKGLRRPHCTVEEGVQKEEREKYRKLLERLKESGHGNSVCPVTSNYHSSQRSQMDTLKTKGWGEEQNHGVKTTQFVPKQYRLVETRGPLCSLRSEKRCSKGKITDTETMVGIRFENESRRGYQLEPDLSEEVSARLRLGSGSNGLLRRKVSIIETKEKNCSGKERDRRTDDLLELTEDMEKEISNALGHGPQDEILSSAFKLRITRGDIQTLKNYHWLNDEVINFYMNLLVERNKKQGYPALHVFSTFFYPKLKSGGYQAVKRWTKGVNLFEQEIILVPIHRKVHWSLVVIDLRKKCLKYLDSMGQKGHRICEILLQYLQDESKTKRNSDLNLLEWTHHSMKPHEIPQQLNGSDCGMFTCKYADYISRDKPITFTQHQMPLFRKKMVWEILHQQLL
